Holding throughout (experiment): pull-down; taken to be the GST pull-down of the methods (glutathione sepharose, immunoblotting); whether with 1 ug recombinant GST- or MBP-tagged proteins in NETN buffer or from cell lysate is not told for this experiment
Test [1] has as its target T1, HS1 SH3 domain (UniProt P14317).
T1 sequence: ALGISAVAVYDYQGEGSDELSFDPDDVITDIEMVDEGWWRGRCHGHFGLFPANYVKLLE

Sequences of proteins named here, by UniProt entry; tags and fusion partners are left off. A change or cut given only in a name is not applied to a line headed by its entry.
UniProt Q14247: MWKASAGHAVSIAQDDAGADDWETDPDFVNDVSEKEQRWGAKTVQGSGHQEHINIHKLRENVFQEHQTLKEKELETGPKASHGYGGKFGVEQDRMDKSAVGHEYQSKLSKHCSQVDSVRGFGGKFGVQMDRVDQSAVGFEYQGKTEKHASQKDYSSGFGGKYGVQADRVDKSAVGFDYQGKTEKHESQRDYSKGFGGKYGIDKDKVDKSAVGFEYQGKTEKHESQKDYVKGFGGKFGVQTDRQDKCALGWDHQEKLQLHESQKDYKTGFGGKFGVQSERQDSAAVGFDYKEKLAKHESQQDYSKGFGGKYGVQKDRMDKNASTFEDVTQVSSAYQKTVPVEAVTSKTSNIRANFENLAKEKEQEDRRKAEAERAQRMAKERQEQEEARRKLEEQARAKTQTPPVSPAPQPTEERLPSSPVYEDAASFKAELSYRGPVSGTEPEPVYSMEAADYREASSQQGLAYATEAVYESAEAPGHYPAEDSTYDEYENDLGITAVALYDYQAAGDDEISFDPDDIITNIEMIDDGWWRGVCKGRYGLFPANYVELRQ

The target in test [2] is HS1 SH3 domain, critical tryptophan mutated to tyrosine (UniProt P14317).
The target of test [3] is cortactin SH3 domain, critical tryptophan mutated to tyrosine (UniProt Q14247).

No constants are given. Whether binding was seen depends on the method and setting. In cells and extracts the contact can be indirect. For part of these data: Binding calls can cover weak binding; strength is not graded here.

As for HS1BP3-ΔPX (human) (domain or fragment), the binding result in test [1] is listed as “binds”.

B1: HS1BP3 (construct of the SH3 domain interaction assay, Supplementary Fig. 3b) (protein, UniProt Q53T59 1-392)
chain: MQSPAVLVTSRRLQNAHTGLDLTVPQHQEVRGKMMSGHVEYQILVVTRLAAFKSAKHRPEDVVQFLVSKKYSEIEEFYQKLSSRYAAASLPPLPRKVLFVGESDIRERRAVFNEILRCVSKDAELAGSPELLEFLGTRSPGAAGLTSRDSSVLDGTDSQTGNDEEAFDFFEEQDQVAEEGPPVQSLKGEDAEESLEEEEALDPLGIMRSKKPKKHPKVAVKAKPSPRLTIFDEEVDPDEGLFGPGRKLSPQDPSEDVSSVDPLKLFDDPDLGGAIPLGDSLLLPAACESGGPTPSLSHRDASKELFRVEEDLDQILNLGAEPKPKPQLKPKPPVAAKPVIPRKPAVPPKAGPAEAVAGQQKPQEQIQAMDEMDILQYIQDHDTPAQAAPSLF
On to B1, for which the binding entry in test [2] and in test [3] was “no binding” in each case.
